PubChem BioAssay AID504795, Drosophila RNAi Screening Center | 2011
Only reagents picked out of a larger screen are listed. 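Every listed dsRNA shows some phenotype; how reagents were selected for listing is not stated.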 Reagents against one gene are numbered here. A plus sign joins genes that one reagent is predicted to hit. No sequences are given here.

Purpose: 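Knock-downs causing abnormal branching, bundling, swelling or growth of cultured neurons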 (primary screen)
Cells: primary Drosophila neurons and glia
Reagent: long dsRNA against Drosophila genes, 250 ng dsRNA per well
Timing: one week
Detection: 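Descriptive morphology terms assigned by visual inspection of live automated images of GFP-marked cells, taken one week after adding 250 ng dsRNA per well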

| Target gene | reagent | phenotype seen, replicate 1 | phenotype seen, replicate 2 |
| --- | --- | --- | --- |
| CG5781 | 1 | cell fragments present | – |
| Ser | 1 | axon bundles split apart | – |
| CG34338 | 1 | sheet-like cell extensions | – |
| dsb | 1 | abnormal cell clusters | – |
| Muc18B | 1 | too many neurite branches | – |
| CG11722 | 1 | beaded; swollen axons | – |
| RpL34a | 1 | too many neurite branches | – |
| dec | 1 | too many neurite branches | – |
| RpS15 | 1 | beaded; swollen axons | – |
| CG18814 | 1 | reduced axon outgrowth | – |
| mRpS7 | 1 | sheet-like cell extensions | – |
| scb | 1 | axon bundles split apart | – |
| scb | 2 | too many neurite branches | – |
| CAH13 | 1 | sheet-like cell extensions | – |
| CG2187 | 1 | abnormal cell clusters | – |
| CG13044 | 1 | axon bundles split apart | – |
| CG32795 | 1 | too many neurite branches | – |
| CG5681 | 1 | abnormal cell clusters | – |
| Mlp60A | 1 | abnormal cell clusters | – |
| CG16736 | 1 | too many neurite branches | – |
| CG11294 | 1 | sheet-like cell extensions | – |
| jeb | 1 | beaded; swollen axons | – |
| Prosbeta7 | 1 | axon bundles split apart | – |
| Sap-r | 1 | reduced axon outgrowth | – |
| Toll-7 | 1 | sheet-like cell extensions | – |
| ScpX | 1 | too many neurite branches | – |
| CG10413 | 1 | axon bundles split apart | – |
| CG13003 | 1 | sheet-like cell extensions | – |
| rost | 1 | reduced axon outgrowth | – |
| RpL28 + snoRNA:Or-CD12 | 1 | reduced axon outgrowth | – |
| CG15576 | 1 | sheet-like cell extensions | – |
| mRNA-cap | 1 | weaker green signal | – |
| rg | 1 | too many neurite branches | – |
| Act57B | 1 | too many neurite branches | – |
| CG8509 | 1 | more self-contacts of neurites | – |
| St4 | 1 | axon bundles split apart | – |
| CG34396 | 1 | fewer cells | – |
| RpL24 | 1 | too many neurite branches | – |

Next part, starting with the last 13 of the part before.
| Target gene | reagent | phenotype seen, replicate 1 | phenotype seen, replicate 2 |
| --- | --- | --- | --- |
| ScpX | 1 | too many neurite branches | – |
| CG10413 | 1 | axon bundles split apart | – |
| CG13003 | 1 | sheet-like cell extensions | – |
| rost | 1 | reduced axon outgrowth | – |
| RpL28 + snoRNA:Or-CD12 | 1 | reduced axon outgrowth | – |
| CG15576 | 1 | sheet-like cell extensions | – |
| mRNA-cap | 1 | weaker green signal | – |
| rg | 1 | too many neurite branches | – |
| Act57B | 1 | too many neurite branches | – |
| CG8509 | 1 | more self-contacts of neurites | – |
| St4 | 1 | axon bundles split apart | – |
| CG34396 | 1 | fewer cells | – |
| RpL24 | 1 | too many neurite branches | – |
| deltaCOP | 1 | axon bundles split apart | – |
| Sec61alpha | 1 | cell fragments present | – |
| CG1090 | 1 | axon bundles split apart | – |
| PIG-O | 1 | abnormal cell clusters | – |
| CG34203 | 1 | too many neurite branches | – |
| Rs1 | 1 | axon bundles split apart | – |
| Arf6 | 1 | fewer cells | – |
| Gpdh1 | 1 | reduced axon outgrowth | – |
| TwdlX | 1 | cell fragments present | – |
| aqz | 1 | too many neurite branches | – |
| ush | 1 | reduced axon outgrowth | – |
| CG15126 | 1 | axon bundles split apart | – |
| CG14696 | 1 | sheet-like cell extensions | – |
| LysB | 1 | axon bundles split apart | – |
| ATPsynE | 1 | axon bundles split apart | – |
| CG32021 (retired record) | 1 | axon bundles split apart | – |
| ath | 1 | cell fragments present | – |
| CG4653 | 1 | reduced axon outgrowth | – |
| CG30379 | 1 | abnormal cell clusters | – |
| app | 1 | axon bundles split apart | – |
| Ptp36E | 1 | too many neurite branches | – |
| CG9692 | 1 | too many neurite branches | – |
| l(2)37Cd | 1 | too many neurite branches | – |
| bero | 1 | too many neurite branches | – |
| RIC-3 | 1 | axon bundles split apart | – |
| CG14606 | 1 | reduced axon outgrowth | – |
| Pxt | 1 | axon bundles split apart | – |
| GluRIB + CG42509 (retired record) | 1 | too many neurite branches | – |
| CG4860 | 1 | reduced axon outgrowth | – |
| CG4860 | 2 | axon bundles split apart | – |
| CG13042 | 1 | axon bundles split apart | – |
| PIG-S | 1 | too many neurite branches | – |
| Trf2 | 1 | too many neurite branches | – |
| Jwa | 1 | too many neurite branches | – |
| CG33958 | 1 | sheet-like cell extensions | – |
| Lgr4 | 1 | too many neurite branches | – |
| lbl | 1 | abnormal cell clusters | – |
| Uros2 | 1 | abnormal cell clusters | – |
| RpL38 | 1 | weaker green signal | – |
| CG42523 | 1 | abnormal cell clusters | – |
| Smvt | 1 | too many neurite branches | – |
| CG33257 | 1 | reduced axon outgrowth | – |
| RpL23A | 1 | too many neurite branches | – |
| CG3517 | 1 | abnormal cell clusters | – |
| CG30222 | 1 | fewer cells | – |
| CG7992 | 1 | abnormal cell clusters | – |
| Cpr78Ca | 1 | abnormal cell clusters | – |
| HmgZ | 1 | abnormal cell clusters | – |
| HmgZ | 2 | fewer cells | – |
| PIP4K | 1 | too many neurite branches | – |
| CG12126 | 1 | too many neurite branches | – |
| ATPsynC | 1 | too many neurite branches | – |
| Vm26Aa | 1 | reduced axon outgrowth | – |
| MED14 | 1 | sheet-like cell extensions | – |
| Nup58 | 1 | abnormal cell clusters | – |
| CG10265 | 1 | axon bundles split apart | – |
| CG6409 | 1 | too many neurite branches | – |
| CG13250 | 1 | axon bundles split apart | – |
| FoxK | 1 | abnormal cell clusters | – |
| Sf3b6 | 1 | axon bundles split apart | – |
| CG5079 | 1 | cell fragments present | – |
| MAGE | 1 | too many neurite branches | – |
| CG4362 | 1 | beaded; swollen axons | – |
| Samtor | 1 | too many neurite branches | – |
| Polr2E | 1 | reduced axon outgrowth | – |
| futsch | 1 | axon bundles split apart | – |
| sun | 1 | fewer cells | – |
| PIG-C | 1 | too many neurite branches | – |
| Or74a | 1 | abnormal cell clusters | – |
| gogo | 1 | reduced axon outgrowth | abnormal cell clusters |
| gogo | 2 | abnormal cell clusters | – |
